From article PMC2742731
Results are given in words; binding and its absence hold for the method and conditions named. Some entries that bind do so weakly or less than the wild type. Sequences can lack the tags named with a protein.

T1: SYP-3 full length fused to the DNA binding domain (DB) of GAL4 (C. elegans) (UniProt O62238)
T1 sequence: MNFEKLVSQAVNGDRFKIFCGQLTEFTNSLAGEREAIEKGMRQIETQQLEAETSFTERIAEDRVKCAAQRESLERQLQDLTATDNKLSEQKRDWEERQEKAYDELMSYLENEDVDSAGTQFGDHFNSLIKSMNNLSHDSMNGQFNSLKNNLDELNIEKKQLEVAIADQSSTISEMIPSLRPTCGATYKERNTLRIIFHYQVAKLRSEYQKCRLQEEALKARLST


How the values were obtained:
[1] = target: T1, SYP-3 full length fused to the DNA binding domain (DB) of GAL4 (C. elegans); assay: two-hybrid; library screen: SYP-1, SYP-2 and SYP-3 full-length constructs and N- and C-terminal truncations as baits; cDNA library from mixed-stage worms (SYP-1 and SYP-2 baits also on an ORFeome library)
[2] = target: T1, SYP-3 full length fused to the DNA binding domain (DB) of GAL4 (C. elegans); assay: two-hybrid; direct test: SYP-1, SYP-2, SYP-3 full length, ΔN and ΔC fused to GAL4 DB, SYP-4 full length fused to GAL4 AD; β-galactosidase activity (X-Gal) and growth on 20 mM 3-AT plates

Row | binding [1] | binding [2] | Binder
1 | binds | – | SYP-4 (prey found in the yeast two-hybrid library screen) (protein, UniProt Q9N5K3 1-605) MSFPTLQVRPNEKNPKVLRCHEFLRQSNQLVERNMINTEGRKMLAKLLTKMVSEAKGIYALDERRAELAKSGKLQEKLKSAYQTSLTVMEDRLHIAELSRQVQEKKLTVQQKYYECDDLRKSVQETNTEARRVQEINEQRLVDTTRATEELIVKSASILKNLENSSDVHKLRAMEEEKRILEEVVEGLRDQKKCLADDIRTKKATLKAESKKSFEKTVIECAKHYKLHQSLMPKLDKSKRSLETLKDEEENRRICGSLSLDETMQFDRSFILASMDKTNKPEKAVQQLTSKSSEVSITPQISETAKSSFSKEPIPTQHPMEVGEEPVIEHSAEESVHIEPPNVTEIREVVPQITIQPTRQDSVVQRDAEELDTSAVPSPQPESILDEPEEEEEELSNHENHADQSMDVMEVDQEVPEESPMEVGEQEEIEQPSVFKDILATEQAALSQEQEPEIVEKQADNDVQFVDDQQVGAQLDVEDEEEVMSENGSNKSNNFSFNFFGNSKGTSAGEGGGEGNFDFNFDGIGAGDDGSNNGGSTGDLDFLNYDGEDEGKGSGNTQSDPFGFASNGNAAGGGGDGSFNFNFDGDGEGGATSGAGGNSTSFFNF
2 | – | binds | SYP-4 full length fused to the activation domain (AD) of GAL4 (protein, UniProt Q9N5K3 1-605) MSFPTLQVRPNEKNPKVLRCHEFLRQSNQLVERNMINTEGRKMLAKLLTKMVSEAKGIYALDERRAELAKSGKLQEKLKSAYQTSLTVMEDRLHIAELSRQVQEKKLTVQQKYYECDDLRKSVQETNTEARRVQEINEQRLVDTTRATEELIVKSASILKNLENSSDVHKLRAMEEEKRILEEVVEGLRDQKKCLADDIRTKKATLKAESKKSFEKTVIECAKHYKLHQSLMPKLDKSKRSLETLKDEEENRRICGSLSLDETMQFDRSFILASMDKTNKPEKAVQQLTSKSSEVSITPQISETAKSSFSKEPIPTQHPMEVGEEPVIEHSAEESVHIEPPNVTEIREVVPQITIQPTRQDSVVQRDAEELDTSAVPSPQPESILDEPEEEEEELSNHENHADQSMDVMEVDQEVPEESPMEVGEQEEIEQPSVFKDILATEQAALSQEQEPEIVEKQADNDVQFVDDQQVGAQLDVEDEEEVMSENGSNKSNNFSFNFFGNSKGTSAGEGGGEGNFDFNFDGIGAGDDGSNNGGSTGDLDFLNYDGEDEGKGSGNTQSDPFGFASNGNAAGGGGDGSFNFNFDGDGEGGATSGAGGNSTSFFNF
